No constants are given. Whether binding was seen depends on the method and setting. In cells and extracts the contact can be indirect.
Target: T1, ZEB1 (WT), zinc finger E-box binding homeobox 1, P37275
T1 chain: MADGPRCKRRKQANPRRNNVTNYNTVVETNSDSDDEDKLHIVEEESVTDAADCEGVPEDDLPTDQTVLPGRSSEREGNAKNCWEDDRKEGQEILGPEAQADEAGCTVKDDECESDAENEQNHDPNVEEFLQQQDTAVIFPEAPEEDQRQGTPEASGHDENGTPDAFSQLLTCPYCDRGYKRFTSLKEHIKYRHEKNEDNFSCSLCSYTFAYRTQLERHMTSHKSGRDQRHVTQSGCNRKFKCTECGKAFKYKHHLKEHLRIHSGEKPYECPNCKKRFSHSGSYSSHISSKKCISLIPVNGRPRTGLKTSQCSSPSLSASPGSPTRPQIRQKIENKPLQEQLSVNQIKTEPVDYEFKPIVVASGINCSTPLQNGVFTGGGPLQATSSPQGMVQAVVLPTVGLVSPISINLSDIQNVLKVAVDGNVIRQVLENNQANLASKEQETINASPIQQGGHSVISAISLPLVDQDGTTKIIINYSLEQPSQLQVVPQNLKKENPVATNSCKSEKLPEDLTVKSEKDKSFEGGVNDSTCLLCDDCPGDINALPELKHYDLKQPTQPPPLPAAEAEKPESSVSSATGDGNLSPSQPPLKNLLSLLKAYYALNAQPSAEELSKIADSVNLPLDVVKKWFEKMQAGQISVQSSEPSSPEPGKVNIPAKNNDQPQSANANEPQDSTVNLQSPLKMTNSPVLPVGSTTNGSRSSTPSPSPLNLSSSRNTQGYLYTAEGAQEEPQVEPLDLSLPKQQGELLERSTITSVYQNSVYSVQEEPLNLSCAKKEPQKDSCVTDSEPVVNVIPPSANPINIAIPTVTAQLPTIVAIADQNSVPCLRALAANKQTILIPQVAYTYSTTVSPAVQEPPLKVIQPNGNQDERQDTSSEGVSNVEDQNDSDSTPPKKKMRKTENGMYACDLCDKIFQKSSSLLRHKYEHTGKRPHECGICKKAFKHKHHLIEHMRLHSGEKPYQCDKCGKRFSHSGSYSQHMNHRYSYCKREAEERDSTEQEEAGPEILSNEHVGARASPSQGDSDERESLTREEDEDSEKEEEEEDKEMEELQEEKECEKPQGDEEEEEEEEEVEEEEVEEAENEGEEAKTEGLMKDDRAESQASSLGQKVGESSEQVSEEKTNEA
Assay: co-IP; lysates of HEK293T cells transfected with combinations of two tagged proteins; immunoprecipitation with anti-HA tag antibody-conjugated agarose beads, western blotting with tag antibodies
Details: remark: other sources report otherwise

- binding: no binding
B1: ZEB1 (WT), zinc finger E-box binding homeobox 1, P37275 1-1124 (protein)
chain: T1 chain

Source: publication PMC9997211
